In PubChem BioAssay AID540256 (National Center for Advancing Translational Sciences (NCATS), 2011):
Among all 300,000 compounds or so, about 3,700 (1.2%) were called active. This list was built around the results that the source calls inconclusive (neither active nor inactive); the mix of calls is not that of the screen. Calls come from the whole dose curve; tested in HEK293 cells. Potencies beside an inconclusive call are fits to weak or partial responses and may not hold up.

Test: qHTS for Inhibitors of binding or entry into cells for Lassa Virus; note: nearly all actives have a fitted effect of over 50% in size
Conditions: Lassa virus pseudotype entry inhibition, cell reporter; series mostly up to 37.9 µM
Potency is the fitted concentration of half-maximal effect.

| SMILES | Potency |
| --- | --- |
| CCCCCSc1nc2sc3c(c2c(=O)n1-c1ccccc1)CCN(C(C)=O)C3 | inconclusive: 35.5 µM [inhibitor, single point] |
| O=c1cnnc(SCc2ccc([N+](=O)[O-])cc2)[nH]1 | inactive |
| CC(C1CC1)N(Cc1ccccc1)C(=O)NC(=O)c1ccc(F)cc1 (stereo not drawn) | active: 11.2 µM |
| COc1ccccc1-n1c(O)c(C=NCc2ccc3c(c2)OCO3)c(=O)[nH]c1=O | inconclusive: 7.08 µM [inhibitor, partial curve, poor fit] |
| CCC(C)(C)n1nnnc1C(c1cc2cc(C)ccc2[nH]c1=O)N1CCCc2ccccc21 (stereo not drawn) | inactive |
| Cc1nn(-c2ccccc2)c(-c2ccccc2)c1C(=O)O | inactive |
| C#CCSc1nnc(-c2ccc(O)cc2)o1 | inconclusive: 11.2 µM [activator, single point] |
| COC(=O)C(C)Sc1nc2c(c(-c3ccc(OC)cc3)c1C#N)-c1ccccc1C2=O (stereo not drawn) | inconclusive: 23.1 µM [inhibitor, single point] |
| CCOC(=O)C(C)(C)N(Cc1ccc(C)cc1)S(=O)(=O)c1ccc(Cl)c([N+](=O)[O-])c1 | inconclusive: 35.5 µM [inhibitor, single point] |
| COc1ccc(CN2C[C@H](COCc3ccccc3)Oc3cccc(F)c3S2(=O)=O)cc1 | inconclusive: 2.81 µM [inhibitor, full curve] |
| O=C(Cc1ccc(Br)cc1)N1CCN(c2ccccc2)CC1 | inactive |
| CCC(C)N(C)Cc1cccc(C2(O)CCN(S(=O)(=O)c3ccc(F)c(C)c3)CC2)c1 (stereo not drawn) | inconclusive: 16.4 µM [inhibitor, partial curve] |
| Oc1ccc(N=Nc2c(O)ccc3ccccc23)cc1 | inconclusive: 0.0065 µM [inhibitor, full curve, poor fit] |
| NS(=O)(=O)c1cccc(NS(=O)(=O)c2cccc(C(F)(F)F)c2)c1 | inactive |
| CNC(=O)Cn1cc(S(=O)(=O)Cc2ccccc2F)c2ccccc21 | inconclusive: 5.62 µM [activator, single point] |
| O=C(Nc1ccc(Oc2cccc(C(F)(F)F)c2)nc1)c1ccccc1 | inconclusive: 35.5 µM [inhibitor, partial curve, poor fit] |
| O=C(NC1CC2CCCC(C1)N2C(=O)Nc1ccccc1)c1ccccc1 (stereo not drawn) | inactive |
| NC(=NC(=O)c1ccc(Cl)cc1)N1N=CCC1c1ccccc1 (stereo not drawn) | inconclusive: 0.562 µM [inhibitor, full curve, poor fit] |
| O=C(c1ccccc1)c1ccccc1C(=O)N1CCN(C(=O)c2ccccc2)CC1 | inconclusive: 6.31 µM [inhibitor, partial curve, poor fit] |
| Cc1ccc(CN(C)C(=O)c2cccc(S(=O)(=O)N3CCN(c4ccccc4)CC3)c2)cc1 | inconclusive: 14.1 µM [inhibitor, single point] |
| O=C(/C=C/c1ccccc1F)c1cccc([N+](=O)[O-])c1 | inconclusive: 32.6 µM [inhibitor, single point] |
| CCCSc1nc(C)c(C(C)=O)cc1C#N | inactive |
| Clc1ccc(CCNc2nc3ccccc3s2)cc1 | inconclusive: 29.1 µM [inhibitor, single point] |

As a short view, part of the list above.

| SMILES | Potency |
| --- | --- |
| COC(=O)C(C)Sc1nc2c(c(-c3ccc(OC)cc3)c1C#N)-c1ccccc1C2=O (stereo not drawn) | inconclusive: 23.1 µM [inhibitor, single point] |
| CCOC(=O)C(C)(C)N(Cc1ccc(C)cc1)S(=O)(=O)c1ccc(Cl)c([N+](=O)[O-])c1 | inconclusive: 35.5 µM [inhibitor, single point] |
| COc1ccc(CN2C[C@H](COCc3ccccc3)Oc3cccc(F)c3S2(=O)=O)cc1 | inconclusive: 2.81 µM [inhibitor, full curve] |
| O=C(Cc1ccc(Br)cc1)N1CCN(c2ccccc2)CC1 | inactive |

Carrying on:

| SMILES | Potency |
| --- | --- |
| O=C(CN1C(=O)NC(Cc2ccccc2)(Cc2ccccc2)C1=O)NCC1CCCCC1 | inconclusive: 17.8 µM [inhibitor, partial curve, poor fit] |
| CN(C)c1ccc(Nc2c3c4c(cccc4n(C)c2=O)C(=O)c2ccccc2-3)cc1 | inconclusive: 3.55 µM [inhibitor, full curve] |
| O=C(OC1C2CCC1C1CN(CCc3ccccc3)CC12)c1ccccc1 (stereo not drawn) | inconclusive: 20.6 µM [inhibitor, single point] |
| CCCCC(=O)Nc1ccc(C(=O)Nc2ccc(S(=O)(=O)Nc3ccc(C)cc3)cc2)cc1 | inconclusive: 29.1 µM [inhibitor, single point] |
| COc1ccc(-c2noc(-c3ccc(N4CCN(C)CC4)c([N+](=O)[O-])c3)n2)cc1OC | inactive |
| CN1C(=O)C(Cl)(Cl)C(=O)c2ccccc21 | inactive |
| CCOc1cc(NC(=O)c2ccccn2)c(OCC)cc1NC(=O)c1ccccc1 | inconclusive: 1.12 µM [inhibitor, full curve] |
| Cc1cc(Br)ccc1NC(=O)C1CCN(S(=O)(=O)c2cccc3nsnc23)CC1 | inactive |
| CCOC(=O)C1CCCN(C(=O)c2sc3nc(C)nc(N4CCOCC4)c3c2C)C1 (stereo not drawn) | inactive |
| COc1ccc(-c2noc(CSc3nnc(C)n3-c3ccc(OC)cc3)n2)cc1 | inconclusive: 0.794 µM [inhibitor, full curve] |
| Clc1ccc(CNCc2cccs2)cc1Cl | inactive |
| O=C(c1ccco1)N1CCN(C(=O)C2CC2)CC1 | inactive |
| CNc1c2cccc(C)c2nc2c(C(=O)NCCN(C)C)cccc12 | inconclusive: 22.4 µM [inhibitor, partial curve, poor fit] |
| C=CCn1nc([N+](=O)[O-])nc1Sc1cccc2cccnc12 | inconclusive: 0.58 µM [inhibitor, partial curve, poor fit] |
| CCCCc1nc(NCCNC(=O)c2ccccc2)c(C#N)c2c1CSC(C)(C)C2 | inconclusive: 35.5 µM [inhibitor, single point] |
| COc1ccc(-c2cc(C)no2)cc1S(=O)(=O)NC(C)C | inactive |
| CCCOC(=O)CSc1ncnc2sc3c(c12)CCC(C)C3 (stereo not drawn) | inconclusive: 14.1 µM [activator, single point] |
| COc1cccc(NC(=O)N2CCN3CCCCC3C2)c1 (stereo not drawn) | inconclusive: 3.16 µM [activator, partial curve, poor fit] |
| CCn1cnc2cc(NCc3nc4ccccc4n3C)ccc21 | inconclusive: 14.6 µM [inhibitor, single point] |
| C=CCSc1nc2ccccc2n1Cc1nnc(-c2cccs2)o1 | inconclusive: 29.1 µM [activator, single point] |
| O=C(C[n+]1ccc(C(=O)c2ccccc2)cc1)Nc1ccccc1OC(F)F | inactive |
| O=C(O)COc1ccc2occ(C(=O)c3ccccc3)c2c1 | inconclusive: 0.562 µM [activator, single point] |
| Cc1cccc(NC(=O)c2sc(-n3nc(C)c(Cc4ccc5c(c4)OCO5)c3C)nc2C)c1C | inactive |

| SMILES | Potency |
| --- | --- |
| Cc1ccc(N(C)S(=O)(=O)c2cccc(C(=O)Nc3nc4ccccc4[nH]3)c2)cc1 | active: 16.4 µM |
| O=c1[nH]c(-c2ccco2)nc2sc3c(c12)CCCC3 | inconclusive: 3.98 µM [activator, partial curve, poor fit] |
| COc1cccc(C(=O)N2CCOCC2)c1OC | inconclusive: 0.631 µM [inhibitor, partial curve, poor fit] |
| Cc1ccc(C)c(COc2coc(CN3CCN(C(=O)c4ccco4)CC3)cc2=O)c1 | inconclusive: 0.447 µM [inhibitor, single point] |
| COc1ccc(-c2c[n+]3c(n2-c2ccc(C)cc2)CCCCC3)cc1 | active: 5.01 µM |
| COc1ccccc1N(C(=O)c1snc(C(N)=O)c1N)C(C(=O)NC1CCCC1)c1ccc2ncccc2c1 (stereo not drawn) | inconclusive: 7.94 µM [inhibitor, partial curve, poor fit] |
| CCNC(=O)C(Sc1ccccc1)c1ccccc1 (stereo not drawn) | inconclusive: 6.51 µM [inhibitor, partial curve, poor fit] |
| COC(=O)[C@@]1(Cc2ccc(F)cc2)[C@H]2c3cc(C(=O)N(C)C)n(Cc4ccccc4)c3C[C@H]2CN1C(=O)c1ccccc1 | inconclusive: 29.1 µM [inhibitor, single point] |
| CCc1cccc(NC(=O)C(Cc2ccccc2)NS(=O)(=O)c2ccc3c(c2)oc(=O)n3C)c1 (stereo not drawn) | inactive |
| CCOC(=O)C1=C(COC(=O)[C@@H](NC(=O)c2cccc(C)c2)C(C)C)NC(=O)NC1C (stereo partly drawn) | inactive |
| Cc1ccc(NC(=O)CN2C(=O)COc3ccc(S(=O)(=O)N4CCCC4)cc32)cc1C | inconclusive: 1.12 µM [inhibitor, partial curve, poor fit] |
| CCc1nc2oc3ccccc3c(=O)c2c(=O)n1-c1ccccc1 | inconclusive: 20.6 µM [activator, partial curve, poor fit] |
| O=S(=O)(NC1CCCCC1)c1cccc(-c2nnc(-c3ccccc3)o2)c1 | inconclusive: 32.6 µM [inhibitor, single point] |
| CC[C@@H](C)[C@H](NC(=O)OC(C)(C)C)c1nnc(S(=O)(=O)Cc2cc(C)ccc2C)o1 | active: 10 µM |
| O=C(NCc1cccs1)c1ccc(Cn2c(SCc3cccc(F)c3)nc3cccnc32)cc1 | inconclusive: 35.5 µM [inhibitor, single point] |
| CN(C)C(=O)CNC(=O)C1CCCCC1 | inconclusive: 29.1 µM [activator, single point] |
| CCc1cc(C(=O)Nc2cc(Cl)ccc2N2CCN(C)CC2)sc1C | inactive |
| CCn1c2ccccc2c2cc(/C=N/n3cnnc3)ccc21 | inactive |
| Fc1cccc(C2NN=C(c3ccccc3)S2)c1 (stereo not drawn) | inconclusive: 14.1 µM [inhibitor, single point] |
| Cc1cc(C)nc(NC(=O)c2c(-c3c(Cl)cccc3Cl)noc2C)n1 | inconclusive: 35.5 µM [inhibitor, single point] |
| CCOc1ccccc1N1CCN(C(=O)c2cccc(-c3ccc(O)cc3)c2)CC1 | inconclusive: 22.4 µM [inhibitor, single point] |
| O=C(OCCOc1cccc(Cl)c1)c1cc(S(=O)(=O)N2CCCCC2)ccc1N1CCOCC1 | inconclusive: 35.5 µM [inhibitor, single point] |
